# Measurements published in PubChem BioAssay (Tox21).
# “And” between values parts separate entries of the source, which are not always exact repeats. Identical values can stand only once. Only results without a clear call are listed here; the source files them as inconclusive. Calls come from the whole dose curve; as a rule, active = well fitted cell-killing curve with a large enough effect in the repeat runs; inconclusive = weak or mixed curves, or effect the other way; inactive = flat fitted curve, though single readings scatter.
# Assay: cAMP Responsive Elements (CRE) small molecule antagonists, cell-based qHTS assay: qHTS cell viability counter screen (AID 2060913); note: nearly all actives have a fitted effect of over 40% in size
# Conditions: CRE-bla HEK293T viability, CellTiter-Glo luminescence, 5 h
# Text: U.S. Tox21 Program National Center for Advancing Translational Sciences [NCATS] Division of Preclinical Innovation [DPI] U.S. Environmental Protection Agency [EPA] National Institutes of Environmental Health Sciences [NIEHS] National Toxicology Program [NTP] U.S. Food and Drug Administration [FDA] Tox21 Assay Overview: CREB (cyclic-AMP Responsive Element Binding Protein) is a cellular transcription factor. It binds to certain DNA sequences called cAMP Responsive Elements (CRE) and regulates the transcription of the genes. […] This cell line can be used to find agonists/antagonists of the cyclic AMP signaling pathway. The activation of the report gene under culture conditions can be detected by fluorescence intensity. This cell line has been used to screen the Tox21 10K compound library to identify agonists that induce oxidative stress. The cytotoxicity of the Tox21 compound library against the CRE-bla cell line was tested in parallel by measuring the cell viability using CellTiter-Glo assay (Promega, Madison, WI) in the same wells.
# Tox21 Assay Protocol Summary: CRE-bla Hek 293T cells were suspended in assay medium (DMEM containing 10% dialyzed FBS, 0.1 mM NEAA, 1 mM sodium pyruvate and 25 mM HEPES) and dispensed at 2,000 cells/4 uL /well into 1536-well black wall/clear bottom plates using a Multidrop Combi (ThermoFisher Scientific, Waltham, MA) dispenser. […] The plates were incubated at room temperature for 2 h, then fluorescence intensities were measured using an Envision plate reader (PerkinElmer, Shelton, CT) at Excitation 405nm, Emission 460nm and 530nm. The % activity was determined from the ratio of 460nm/530nm. For cell viability readout that measures cytotoxicity, 4 uL /well of CellTiter-Glo reagent was added into the assay plates using Bioraptr FRD. After 30 min incubation at room temperature, the luminescence intensity in the assay plates was measured using a ViewLux (PerkinElmer, Shelton, CT) plate reader.
# Potency is the fitted concentration of half-maximal effect.
row,SMILES,Potency
1,CC(C)OP(=S)(OC(C)C)SCCNS(=O)(=O)c1ccccc1,inconclusive: 68.6 µM
2,CN(CCCl)CCCl,inconclusive: 68.5 µM
3,Cc1cc([N+](=O)[O-])cc([N+](=O)[O-])c1O,inconclusive: 12.2 µM and inconclusive: 9.69 µM
